Results as given in publication PMC10954555.

By UniProt entry, the sequences of proteins in these tests, tags left out.
UniProt Q9C086: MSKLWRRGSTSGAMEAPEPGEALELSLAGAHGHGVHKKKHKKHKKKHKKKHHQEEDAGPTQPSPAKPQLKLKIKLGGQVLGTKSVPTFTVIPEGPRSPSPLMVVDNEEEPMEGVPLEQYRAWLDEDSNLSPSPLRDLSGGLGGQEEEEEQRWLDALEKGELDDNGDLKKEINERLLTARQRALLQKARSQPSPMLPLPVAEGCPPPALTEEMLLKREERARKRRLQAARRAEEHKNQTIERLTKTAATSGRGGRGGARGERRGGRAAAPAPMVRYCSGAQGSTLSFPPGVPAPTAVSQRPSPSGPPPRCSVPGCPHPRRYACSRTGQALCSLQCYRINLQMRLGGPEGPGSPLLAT
UniProt Q53TQ3: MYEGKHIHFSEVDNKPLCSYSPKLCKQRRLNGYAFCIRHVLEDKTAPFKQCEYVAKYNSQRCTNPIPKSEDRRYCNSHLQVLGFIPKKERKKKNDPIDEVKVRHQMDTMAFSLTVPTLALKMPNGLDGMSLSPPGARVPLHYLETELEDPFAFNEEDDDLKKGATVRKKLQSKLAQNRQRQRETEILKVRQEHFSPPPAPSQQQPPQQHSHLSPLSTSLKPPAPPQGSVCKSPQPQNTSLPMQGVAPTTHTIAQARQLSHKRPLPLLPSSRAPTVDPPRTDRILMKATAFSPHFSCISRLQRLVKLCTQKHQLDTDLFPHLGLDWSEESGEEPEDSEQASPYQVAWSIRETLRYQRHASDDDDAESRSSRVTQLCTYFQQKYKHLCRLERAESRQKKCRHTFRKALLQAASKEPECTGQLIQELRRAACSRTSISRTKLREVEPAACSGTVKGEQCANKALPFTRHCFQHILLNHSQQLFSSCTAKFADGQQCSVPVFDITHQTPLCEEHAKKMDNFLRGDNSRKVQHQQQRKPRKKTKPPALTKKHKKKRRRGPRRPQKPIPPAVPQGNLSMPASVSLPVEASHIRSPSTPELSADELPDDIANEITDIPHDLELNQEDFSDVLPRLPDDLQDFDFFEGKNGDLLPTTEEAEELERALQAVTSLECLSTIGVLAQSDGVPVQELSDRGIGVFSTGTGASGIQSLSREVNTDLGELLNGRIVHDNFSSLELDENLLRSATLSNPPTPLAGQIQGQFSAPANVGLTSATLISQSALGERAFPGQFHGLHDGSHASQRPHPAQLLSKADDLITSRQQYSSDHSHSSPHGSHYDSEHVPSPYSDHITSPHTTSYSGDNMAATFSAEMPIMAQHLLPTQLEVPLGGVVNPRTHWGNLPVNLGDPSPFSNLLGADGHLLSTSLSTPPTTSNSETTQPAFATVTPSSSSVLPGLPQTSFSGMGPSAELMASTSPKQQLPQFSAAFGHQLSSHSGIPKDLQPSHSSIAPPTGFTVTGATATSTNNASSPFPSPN
UniProt Q96EZ8: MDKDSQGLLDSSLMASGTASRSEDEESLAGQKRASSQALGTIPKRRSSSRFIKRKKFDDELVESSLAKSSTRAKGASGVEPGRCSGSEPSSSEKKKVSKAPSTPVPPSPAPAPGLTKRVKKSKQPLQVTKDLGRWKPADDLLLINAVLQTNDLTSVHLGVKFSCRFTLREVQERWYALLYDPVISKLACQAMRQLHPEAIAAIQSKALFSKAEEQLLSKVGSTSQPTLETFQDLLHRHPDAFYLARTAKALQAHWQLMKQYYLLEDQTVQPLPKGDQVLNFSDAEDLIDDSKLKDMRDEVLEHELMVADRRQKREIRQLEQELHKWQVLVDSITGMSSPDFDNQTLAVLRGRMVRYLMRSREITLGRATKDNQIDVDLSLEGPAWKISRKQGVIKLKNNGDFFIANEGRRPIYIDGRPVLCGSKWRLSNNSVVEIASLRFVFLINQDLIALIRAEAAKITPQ
UniProt P25490: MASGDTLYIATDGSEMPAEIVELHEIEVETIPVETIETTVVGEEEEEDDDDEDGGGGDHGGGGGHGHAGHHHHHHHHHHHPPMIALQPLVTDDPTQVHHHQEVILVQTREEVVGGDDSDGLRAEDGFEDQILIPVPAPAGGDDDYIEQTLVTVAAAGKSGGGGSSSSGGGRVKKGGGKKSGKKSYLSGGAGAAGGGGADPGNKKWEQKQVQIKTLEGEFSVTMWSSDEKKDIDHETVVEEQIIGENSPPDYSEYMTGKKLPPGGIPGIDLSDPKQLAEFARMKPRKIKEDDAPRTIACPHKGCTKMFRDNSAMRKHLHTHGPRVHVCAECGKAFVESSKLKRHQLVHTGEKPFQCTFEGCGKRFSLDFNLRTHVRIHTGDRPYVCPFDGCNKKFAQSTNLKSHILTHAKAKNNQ

What was measured:
[1] = target: INO80B-V5 (endogenously V5-tagged INO80B) (human (endogenous in MCF-7)) (UniProt Q9C086); assay: affinity purification with mass spectrometry; anti-V5 immunoprecipitation from nuclear extracts of MCF-7 INO80B-V5 knock-in clones followed by label-free MS (n = 3); stoichiometry relative to INO80B
[2] = target: INO80B-V5 (endogenously V5-tagged INO80B) (human (endogenous in MCF-7)) (UniProt Q9C086); assay: as above; remark: listed apart in the source

Molecule | binding [1] | binding [2]
INO80D (from UniProt Q53TQ3 1-1027) | binds | 
MCRS1 (from UniProt Q96EZ8 1-462) | binds | 
YY1 (from UniProt P25490 1-414) | binds | 
transforming growth factor beta regulator 1 (TBRG1) (protein, UniProt Q3YBR2 1-411) MSLLDGLASSPRAPLQSSKARMKKLPKKSQNEKYRLKYLRLRKAAKATVFENAAICDEIARLEEKFLKAKEERRYLLKKLLQLQALTEGEVQAAAPSHSSSLPLTYGVASSVGTIQGAGPISGPSTGAEEPFGKKTKKEKKEKGKENNKLEVLKKTCKKKKMAGGARKLVQPIALDPSGRPVFPIGLGGLTVYSLGEIITDRPGFHDESAIYPVGYCSTRIYASMKCPDQKCLYTCQIKDGGVQPQFEIVPEDDPQNAIVSSSADACHAELLRTISTTMGKLMPNLLPAGADFFGFSHPAIHNLIQSCPGARKCINYQWVKFDVCKPGDGQLPEGLPENDAAMSFEAFQRQIFDEDQNDPLLPGSLDLPELQPAAFVSSYQPMYLTHEPLVDTHLQHLKSPSQGSPIQSSD |  | binds

Where two headings read alike, the source gives them in different places. These are yes or no findings as the source states them, for the method shown. In cells and extracts the contact can be indirect. Here binding means that the protein was enriched with, or labelled near, the bait; the list need not be complete.
